Data as given in PubChem BioAssay AID652259 (Drosophila RNAi Screening Center, 2013).

Aim: 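Genome-wide hunt for genes that control Wingless pathway activity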 (primary screen)
Cells: Drosophila clone 8 imaginal disc epithelial cells
Reagents: long dsRNA against Drosophila genes
Challenge: pathway stimulated by co-transfected Wingless expression plasmid
Read-out: 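Dual luciferase reads per well after Wingless plasmid stimulation: reporter firefly light and Renilla control light; activity is firefly divided by Renilla, a ratio not deposited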
Reading the numbers: firefly reporter light: higher = more Wg reporter light, before normalisation; Renilla control light: higher = more transfected or surviving cells
Active means: 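a knock-down is a candidate when at least two out of four statistical tests show it departing from its plate mean; one test alone signals a weak candidate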
Meaning of the calls: active = candidate regulator (raises or lowers reporter); inactive = not a candidate
The screen tested about 22,000 reagents; shown is an unselected part of those that have a named target and a result. Of all reagents, 233 (1.1%) were called active. 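Light values are raw, unnormalised plate reads; the ratio scores behind the reporter calls were not deposited.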 Entries without a mark were called inactive. Names joined by + are all predicted targets of the reagent. Reagent sequences are not shown. Not stated in the record: the amount of reagent, the time to read-out, the dose of the treatment.

firefly reporter light, replicate 1 | firefly reporter light, replicate 2 | Renilla control light, replicate 1 | Renilla control light, replicate 2 | Gene | DRSC id
6592 | – | 3718 | – | CG33061 | DRSC09938
4.38e5 | 4.30e5 | 1.91e5 | 1851 | CG33061 | DRSC22897
2765 | – | 525 | – | grn (grain) | DRSC12666
20212 | – | 5217 | – | grn (grain) | DRSC16961
6380 | – | 2076 | – | bib (big brain) | DRSC03496
4997 | – | 1968 | – | FucTD (alpha1,3-fucosyltransferase D) | DRSC08634
2779 | 5160 | 1169 | 1858 | Gycalpha99B (Guanylyl cyclase alpha-subunit at 99B) | DRSC16690
3013 | 6812 | 546 | 2313 | CG4563 | DRSC04474
9389 | – | 3322 | – | Paip2 (polyA-binding protein interacting protein 2) | DRSC14504
18557 | – | 4307 | – | CG42564 | DRSC12518
13069 | – | 4007 | – | CG11286 | DRSC14293

4 neighbouring entries already listed, for reference:
firefly reporter light, replicate 1 | firefly reporter light, replicate 2 | Renilla control light, replicate 1 | Renilla control light, replicate 2 | Gene | DRSC id
4.38e5 | 4.30e5 | 1.91e5 | 1851 | CG33061 | DRSC22897
2765 | – | 525 | – | grn (grain) | DRSC12666
20212 | – | 5217 | – | grn (grain) | DRSC16961
6380 | – | 2076 | – | bib (big brain) | DRSC03496

More entries follow.
firefly reporter light, replicate 1 | firefly reporter light, replicate 2 | Renilla control light, replicate 1 | Renilla control light, replicate 2 | Gene | DRSC id
2386 | 5485 | 873 | 1288 | ovo | DRSC18050
29716 | – | 12566 | – | ovo | DRSC18812
4.42e5 | 4.35e5 | 1.86e5 | 1.85e5 | CG30197 | DRSC22394
2688 | 5932 | 1034 | 2227 | CG16995 | DRSC00480
22160 | – | 4380 | – | tara (taranis) | DRSC17076
16688 | – | 7910 | – | nur (nemuri) | DRSC01342
5936 | – | 1664 | – | wmd (wing morphogenesis defect) | DRSC04436
5392 | – | 1920 | – | SIDL (Shal Interactor of Di-Leucine Motif) | DRSC16077
6.24e5 | 5.38e5 | 1.77e5 | 1.94e5 | CG42560 + CG42559 | DRSC21873
1194 | 7795 | 877 | 2849 | CG5087 | DRSC10479
15986 | – | 13730 | – | Obp56i (Odorant-binding protein 56i) | DRSC05812
3067 | 4843 | 1304 | 2246 | CG1840 | DRSC19806
6791 | – | 2538 | – | Krn (Keren) | DRSC11202
3530 | 4652 | 818 | 2033 | CG7882 | DRSC04899
6274 | – | 614 | – | dmrt99B (doublesex-Mab related 99B) | DRSC15045
3276 | 6564 | 547 | 585 | Acox3 (Acyl-CoA oxidase 3) | DRSC03251
9974 | – | 3659 | – | Dph3 (Diphthamide biosynthesis 3) | DRSC14923
8185 | – | 3157 | – | CG8517 | DRSC07205
